Data: EP3272768A1, “CHIMERIC PEPTIDES USEFUL IN MALARIA PROPHYLAXIS OR TREATMENT” (priority 2016, dated 2018)
At least one peptide structure holds a part that was inferred or is arguable (an end, a ring closure or a residue). Peptide text beside a SMILES is read from it.

How the values were obtained:
Type in all cases: cell-based
[1] = tested on: hepatic stage of the P. falciparum; test: hepatic stage assay: infected primary human hepatocytes, parasites detected by immunofluorescence; details: for inhibitory activity on P. falciparum development: hepatic stage, peptide added 3h after infection, different concentrations, each 48h, 6 days of treatment
[2] = tested on: erythrocytic stage of P. falciparum; test: growth inhibition assay, erythrocytic stage (SYBR Green I, flow cytometry); details: in vitro; 100 µM to 48 nM; 48 h; starting parasitemia 0.5%, haematocrit 1%; Figure 3
[3] = tested on: hepatic stage of the P. vivax; test: hepatic stage assay: infected primary human hepatocytes, analysed by fluorescence microscopy; details: PfLRR1.2 versus PfLRR1.1; Figures 5A and 5B

Structure (SMILES)	inhibitory activity on P. falciparum development [1]	inhibitory activity on blood stages of P. falciparum [2]	activity compared with the other peptide, P. falciparum hepatic stage ([1]; PfLRR1.2 versus PfLRR1.1)	effect on plasmodium growth compared with the other peptide, P. vivax hepatic stage [3]
CC[C@H](C)[C@H](NC(=O)[C@H](CCCCN)NC(=O)[C@H](CCCCN)NC(=O)[C@H](CCCCN)NC(=O)[C@H](CCCCN)NC(=O)[C@@H](N)C(C)C)C(=O)N[C@@H](CCCCN)C(=O)N[C@@H](C)C(=O)N[C@@H](CCC(=O)O)C(=O)N[C@H](C(=O)N[C@@H](CCCCN)C(=O)N[C@H](C(=O)N[C@@H](CCC(=O)O)C(=O)N[C@@H](CC(N)=O)C(=O)N[C@@H](Cc1ccc(O)cc1)C(=O)N[C@@H](CCCNC(=N)N)C(=O)N[C@@H](CCCCN)C(=O)N[C@H](C(=O)N[C@H](C(=O)N[C@H](C(=O)N[C@@H](Cc1c[nH]cn1)C(=O)N[C@H](C(=O)N[C@@H](CC(C)C)C(=O)N1CCC[C@H]1C(=O)N[C@@H](CCC(N)=O)C(=O)N[C@@H](CC(C)C)C(=O)N[C@@H](CCCCN)C(=O)N[C@@H](CCC(N)=O)C(=O)N[C@@H](CC(C)C)C(=O)N[C@@H](CC(=O)O)C(=O)N[C@@H](C)C(=O)N[C@@H](CC(C)C)C(=O)O)[C@@H](C)CC)[C@@H](C)CC)[C@@H](C)CC)[C@@H](C)O)[C@@H](C)CC)[C@@H](C)CC [PfLRR1.1] (H-VKKKKIKAEIKIENYRKTIIHILPQLKQLDAL-OH)	significant inhibitory activity	significant inhibitory activity	–	–
CC[C@H](C)[C@H](NC(=O)[C@H](CCCCN)NC(=O)[C@H](CCCCN)NC(=O)[C@H](CCCCN)NC(=O)[C@H](CCCCN)NC(=O)[C@@H](N)C(C)C)C(=O)N[C@@H](CCCCN)C(=O)N[C@@H](C)C(=O)N[C@@H](CCC(=O)O)C(=O)N[C@H](C(=O)N[C@@H](CCCCN)C(=O)N[C@H](C(=O)N[C@H](C(=O)N[C@@H](CCC(=O)O)C(=O)N[C@@H](CC(N)=O)C(=O)N[C@@H](CC(C)C)C(=O)N[C@@H](CCC(N)=O)C(=O)N[C@@H](CC(N)=O)C(=O)N[C@@H](CS)C(=O)N[C@@H](CCCCN)C(=O)N[C@@H](CCCCN)C(=O)N[C@@H](CC(C)C)C(=O)N[C@@H](CCCNC(=N)N)C(=O)N[C@@H](CC(C)C)C(=O)N[C@@H](CC(C)C)C(=O)N[C@@H](CCC(=O)O)C(=O)N[C@@H](CC(C)C)C(=O)NCC(=O)N[C@@H](Cc1ccc(O)cc1)C(=O)N[C@@H](CC(N)=O)C(=O)N[C@@H](CCCCN)C(=O)N[C@H](C(=O)N[C@@H](CCCNC(=N)N)C(=O)N[C@@H](CCSC)C(=O)O)[C@@H](C)CC)[C@@H](C)CC)[C@@H](C)CC)[C@@H](C)CC [PfLRR1.2] (H-VKKKKIKAEIKIIENLQNCKKLRLLELGYNKIRM-OH)	significant inhibitory activity	significant inhibitory activity	more active	greater effect
